Ki and KiCAII/KiCAIX data for two compounds are collected here from patent US20130053392A1, “CARBONIC ANHYDRASE INHIBITORS” (priority 2010, published 2013).

Sequences of proteins named here, by UniProt entry; tags and fusion partners are left off. Residues count along the entry.
UniProt O43570, 25-354 limits assumed: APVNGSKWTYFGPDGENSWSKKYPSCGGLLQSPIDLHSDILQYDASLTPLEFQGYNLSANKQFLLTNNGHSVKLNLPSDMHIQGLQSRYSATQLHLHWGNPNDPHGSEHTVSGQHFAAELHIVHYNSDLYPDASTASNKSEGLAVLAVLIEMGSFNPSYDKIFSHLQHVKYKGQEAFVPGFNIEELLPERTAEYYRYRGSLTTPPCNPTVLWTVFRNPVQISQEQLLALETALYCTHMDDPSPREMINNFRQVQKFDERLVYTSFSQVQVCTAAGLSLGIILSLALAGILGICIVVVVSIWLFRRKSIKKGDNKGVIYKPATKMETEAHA
UniProt P00915, whole entry: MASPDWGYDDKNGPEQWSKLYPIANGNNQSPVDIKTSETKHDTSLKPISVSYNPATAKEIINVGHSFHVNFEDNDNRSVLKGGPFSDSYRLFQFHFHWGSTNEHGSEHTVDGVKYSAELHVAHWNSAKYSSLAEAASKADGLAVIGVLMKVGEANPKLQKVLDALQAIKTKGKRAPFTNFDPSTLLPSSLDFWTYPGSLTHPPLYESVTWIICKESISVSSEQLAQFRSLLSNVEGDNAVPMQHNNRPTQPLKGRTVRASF

Common to all, as to type: biochemical
One experiment deals with hCA II (Homo sapiens, UniProt P00918). The experiment in a line: CA-catalysed CO2 hydration stopped-flow inhibition assay, hCA II. The following applies: read-out: Ki hCA II; Table 1, sulfamates 3; tested form: iodide.
In a further experiment the target is hCA XII (Homo sapiens, UniProt O43570). The experiment in a line: CA-catalysed CO2 hydration stopped-flow inhibition assay, hCA XII. The following applies: read-out: Ki hCA XII; Table 1, sulfamates 3; tested form: iodide.
In the next experiment the target is hCA IX (Homo sapiens, UniProt Q16790). The experiment can be described thus: CA-catalysed CO2 hydration stopped-flow inhibition assay, hCA IX. The following applies: tested form: iodide; for KiCAII/KiCAIX: Table 1, selectivity ratio; for Ki: read-out: Ki hCAIX, Table 1, sulfamates 3.
The next experiment concerns the target hCA I (Homo sapiens, UniProt P00915). The experiment in a line: CA-catalysed CO2 hydration stopped-flow inhibition assay, hCA I. Particulars: read-out: Ki hCA I; Table 1, sulfamates 3; tested form: iodide.

The match of structure and compound is tentative.

`C[n+]1ccccc1CCNC(=O)Nc1ccc(OS(N)(=O)=O)cc1`: the Ki (usually the equilibrium dissociation constant of an inhibitor or competing ligand from its target) at hCA II came to 376 nM; on hCA XII, 8 nM; at hCA IX it was 6 nM; on hCA I it was 1850 nM. Also, the KiCAII/KiCAIX on hCA IX was 62.6.

Turning to `C[n+]1ccccc1CNC(=O)Nc1ccc(OS(N)(=O)=O)cc1`, the Ki on hCA II was found to be 403 nM; on hCA XII, 7 nM; on hCA IX, 8 nM; at hCA I, 4320 nM. The KiCAII/KiCAIX at hCA IX is 50.3.
